According to US20230266302A1, “SYNTHESIS AND USE OF N-BENZYL SULFONAMIDES” (THE UNIVERSITY OF TULSA, priority 2020, published 2023):
Some entries share one result that the patent states for a list of compounds.

System: cells
Assay: Initial cell viability screening (FIG. 8)
Format: cell-based
Conditions: 500 μM and 100 μM, relative to DMSO control, result in words

| Structure (SMILES) | % cell viability, initial screening |
| --- | --- |
| O=S(=O)(NCc1cscn1)c1ccc(Cl)cc1 [Compound 18, 4-chloro-N-(1,3-thiazol-4-ylmethyl)benzenesulfonamide] | active in cells relative to a control of DMSO |
| Cc1ccc(S(=O)(=O)NCc2c[nH]c3cccc(Br)c23)cc1 [Compound 5, N-[(4-bromo-1H-indol-3-yl)methyl]-4-methylbenzenesulfonamide] | active in cells relative to a control of DMSO |
| O=S(=O)(NCc1ccco1)c1ccc(Cl)cc1 [Compound 20, 4-chloro-N-(furan-2-ylmethyl)benzenesulfonamide] | active in cells relative to a control of DMSO |
| Cn1cc(CNS(=O)(=O)c2ccc(Cl)cc2)cn1 [Compound 11, 4-chloro-N-[(1-methyl-1H-pyrazol-4-yl)methyl]benzenesulfonamide] | active in cells relative to a control of DMSO |
| O=S(=O)(NCc1c[nH]c2ccccc12)c1ccc(Cl)cc1 [Compound 2, N-[(1H-indol-3-yl)methyl]-4-chlorobenzenesulfonamide] | active in cells relative to a control of DMSO |
| Cc1cccc2[nH]cc(CNS(=O)(=O)c3ccccc3)c12 [Compound 7, N-[(4-methyl-1H-indol-3-yl)methyl]benzenesulfonamide] | active in cells relative to a control of DMSO |
| Cc1ccc(S(=O)(=O)NCc2coc(C)n2)cc1 [Compound 21, 4-methyl-N-[(2-methyl-1,3-oxazol-4-yl)methyl]benzenesulfonamide] | active in cells relative to a control of DMSO |
| Cc1ccc(S(=O)(=O)NCc2nccs2)cc1 [Compound 19, 4-methyl-N-(1,3-thiazol-2-ylmethyl)benzenesulfonamide] | active in cells relative to a control of DMSO |
| Cc1ccc(S(=O)(=O)NCc2ccc3ncccc3c2)cc1 [Compound 22, 4-methyl-N-(quinolin-6-ylmethyl)benzenesulfonamide] | active in cells relative to a control of DMSO |
| Cc1ccc(S(=O)(=O)NCc2cnccn2)cc1 [Compound 16, 4-methyl-N-(pyrazin-2-ylmethyl)benzenesulfonamide] | active in cells relative to a control of DMSO |
| O=S(=O)(NCc1cncnc1)c1ccc(Cl)cc1 [Compound 14, 4-chloro-N-(pyrimidin-5-ylmethyl)benzenesulfonamide] | active in cells relative to a control of DMSO |
| Cc1cccc2c(CNS(=O)(=O)c3ccccc3)c[nH]c12 [Compound 6, N-[(7-methyl-1H-indol-3-yl)methyl]benzenesulfonamide] | active in cells relative to a control of DMSO |
| COc1ncccc1CNS(=O)(=O)c1ccc(C)cc1 [Compound 12, N-[(2-methoxypyridin-3-yl)methyl]-4-methylbenzenesulfonamide] | active in cells relative to a control of DMSO |
| Cc1ccc(S(=O)(=O)NCc2nn(C)c3ccccc23)cc1 [Compound 8, 4-methyl-N-[(1-methyl-1H-indazol-3-yl)methyl]benzenesulfonamide] | active in cells relative to a control of DMSO |
| Cc1ccc(S(=O)(=O)NCc2ccc3c(cnn3C)c2)cc1 [Compound 9, 4-methyl-N-[(1-methyl-1H-indazol-5-yl)methyl]benzenesulfonamide] | active in cells relative to a control of DMSO |
